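Growth of Mycobacterium tuberculosis over 3 days (7H9 medium with glucose and tyloxapol); the read-out is not stated. Concentration: 50 µM. Higher reads as more growth inhibition (inferred: compounds with an IC50 in retests scored well above the rest). Size under these conditions: about 69,000 compounds, about 760 of them at 50% or above in at least one test.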

Each number is a percent effect as filed.
The record does not define 0% and 100%; most values in the screen are far below 50% and negative numbers occur (in some assays of this library far below -100).
This is an unselected part of the compounds tested.
Two or more numbers in one place are separate tests of the same structure; such repeats can differ widely.

| # | Compound | Percent Effect |
|---|---|---|
| 1 | `COc1ncc(C2(O)CCN(Cc3c(F)cccc3F)CC2)c(OC)n1.Cl` | -27.91 |
| 2 | `CNS(=O)(=O)c1ccc(CN2CCCN(Cc3ccncc3)CC2)cc1` | -4.697 and -5.142 |
| 3 | `O=C(NCC1CC1)Nc1cnc2ccc(F)cc2c1O` | -17.4 |
| 4 | `CCCNC1(c2ccc(Cl)cc2)CCOCC1` | -13.39 |
| 5 | `Cc1nc(Cc2ccc(F)cc2)cc(C2COCCN2)n1.Cl` (centres unmarked) | 17.21 |
| 6 | `CNC(=O)CN1CCOCC2(CCCN(CCc3ccccc3)C2)C1.O=C(O)C(F)(F)F.O=C(O)C(F)(F)F` (centres unmarked) | 15.37 |
| 7 | `CCc1ccc2nc(C)cc(C(=O)NC3CCNC3=O)c2c1` (centres unmarked) | 0.658 and 1.944 |
| 8 | `Cc1noc(C)c1CCC(=O)N1CCCN(Cc2cccs2)CC1` | 29.45 |
| 9 | `CCCSc1nn(CCCN(C)C)c2nc3sc(C)c(CC)c3c(=O)n12` | 17.14 |
| 10 | `N#Cc1cccc(S(=O)(=O)N2CCCCC2C(N)=O)c1` (centres unmarked) | 13.68 |
| 11 | `CCN(Cc1cccc2c1OCO2)CC1CCCO1` (centres unmarked) | 0.4842 and 6.199 |
| 12 | `Cc1nc(CN2CCCN(C(=O)CCc3ccco3)CC2)cs1` | 21.64 |
| 13 | `COC(=O)CNC(=O)c1ccc(OC2CCN(S(C)(=O)=O)CC2)c(Cl)c1` | 3.14 |
| 14 | `O=C(O)C(F)(F)F.O=C(O)C(F)(F)F.[H][C@]12CCCC(N3CCN(c4ncccn4)CC3)[C@@]1([H])CN(C(C)=O)C2` (some centres unmarked) | -7.872 and -39.26 |
| 15 | `[H][C@@]12CCN(Cc3ccco3)C[C@@]1([H])O[C@@H](C)C2` | 10.55 |
| 16 | `O=C(O)Cc1cccc(-n2ccnc2-c2ccc(F)c(Cl)c2)c1` | -4.804 |
| 17 | `Cc1noc(C)c1CN1CCC(c2nc3cc(Cl)ccc3o2)CC1` | 7.081 and -27.69 |
| 18 | `Cc1nnc(NC(=O)c2c3c(nn2C2CCS(=O)(=O)C2)CCC3)s1` (centres unmarked) | 20.01 |
| 19 | `Cc1ccc(-c2nnc(CN3CCn4c(nnc4C4CC4)C3)o2)cc1` | 32.78 |
| 20 | `Cn1ncc2c(NCCCOc3cccnc3)nc(C3CCCC3)nc21` | -8.913 |
| 21 | `Cl.N#Cc1cnc2ccccc2c1N1CCN(CCC(=O)O)CC1` | -0.9842 |
| 22 | `Cc1nc(CCC(=O)NC2CCC2)cc(C2CCCNC2)n1` (centres unmarked) | 6.522 |
| 23 | `[H][C@@]12CNC(=O)N1CCN(C1CCOCC1)C2` | 7.158 and 17.21 |
| 24 | `[H][C@@]12CN(S(=O)(=O)c3ccccc3)C[C@@]1([H])N(CCOC)C(=O)CO2` | -33.15 and -8.062 |
| 25 | `CN(CCO)Cc1nnc(C2CCN(C(=O)c3ccccc3)CC2)n1C` | 4.921 |
| 26 | `CCNC(=O)CCC(=O)N1CCC(Oc2cc(C)ccc2C)CC1` | 20.16 |
| 27 | `COc1ccccc1C1(CNc2snc(Cl)c2C#N)CCCC1` | 1.734 |
| 28 | `O=C1C(NCc2nnc3n2CCCC3)CCN1c1ccccc1F` (centres unmarked) | 13.22 |
| 29 | `Cn1cc(CN2CCCC23CCN(Cc2nccn2C)CC3)cn1.O=C(O)C(F)(F)F.O=C(O)C(F)(F)F` | -3.656 |
| 30 | `Cc1cc(CSc2nc(=O)ccn2C(C)C)no1` | -4.751 |
| 31 | `CCOCC1c2c(ncn2C(C)C)CCN1C(C)C.O=C(O)C(F)(F)F.O=C(O)C(F)(F)F` (centres unmarked) | -7.225 and 1.44 |
| 32 | `[H][C@@]12CN(C(=O)CO)C[C@]1([H])C(=O)N(Cc1cccc(F)c1)C2` | 5.848 |
| 33 | `COCCN(Cc1ccco1)Cc1nc(-c2ccccc2C)no1` | 2.105 and 2.904 |
| 34 | `Cc1cc(NC(=O)CSc2nc(=O)ccn2C(C)C)no1` | -0.2426 |
| 35 | `O=C(NCCC1CCN(CC(F)(F)F)CC1)C1CCCO1` (centres unmarked) | 8.976 |
| 36 | `COCCn1ccc2c(C(=O)NCC3CCCO3)cccc21` (centres unmarked) | 18.4 |
| 37 | `COCCN(Cc1ccccn1)C(=O)CC1OCCc2ccsc21` (centres unmarked) | 7.742 |
| 38 | `CC(C)Oc1ccc(C(=O)NCc2ccc3c(c2)CCCN3C)cn1` | 23.58 |
| 39 | `CCCC(=O)NS(=O)(=O)c1ccc(C#N)c(C(F)(F)F)c1` | -5.236 |
| 40 | `CN(C)CC(=O)N1CCC2(CC1)CN(c1ccsc1)C(=O)CO2.O=C(O)C(F)(F)F` | -40.2 |
| 41 | `Cn1cc(C(=O)N2CCCC(c3cc(O)n(C)n3)C2)cn1` (centres unmarked) | -18.51 |
| 42 | `Cc1csc(N2CCN(CC(=O)Nc3cccnc3)CC2C)n1` (centres unmarked) | 22.43 and -0.3857 |
| 43 | `CCN1CC2(CC1=O)CN(C(=O)NC)CCN(S(C)(=O)=O)C2` (centres unmarked) | -37.59 and -3.283 |
| 44 | `CCOC(=O)CNC(=O)c1cc(-c2ccccc2)nc2ncnn12` | 7.343 |
| 45 | `CC(C)c1nnc2n1CCN(Cc1csc(CC(=O)N(C)C)n1)C2` | -82.78 |
| 46 | `[H][C@@]12CN(C(C)=O)CCO[C@]1([H])CN(S(=O)(=O)C1CC1)C2` | 25.78 |
| 47 | `CCOc1cccc(NC(=O)c2cc(C)on2)n1` | -16.99 |
| 48 | `Cn1ccc2c(ccn2CC(=O)Nc2ccc(Br)cc2)c1=O` | 18.83 |
| 49 | `O=C(O)C(F)(F)F.[H][C@@]12CCN(c3ncccn3)C[C@]1(C(=O)NCc1ccco1)CCO2` | -15.8 and -4.944 |
| 50 | `Cn1ccnc1CN1CCCN(C(=O)c2ccc3cc[nH]c3c2)CC1` | 1.021 |
| 51 | `O=C(Nc1c(N2CCCC2)cccc1N1CCCC1)c1cnccn1` | -8.863 |
| 52 | `CC1(c2ccccc2)CCC(=O)N(CCCN2CCOCC2)C1` (centres unmarked) | -2.576 |
| 53 | `CC(C)Nc1ncnc2c1CCN(C(=O)c1ccccc1F)CC2.O=C(O)C(F)(F)F` | 10.15 |
| 54 | `CCNc1c(NC(=O)NC(C)C)c(=O)oc2ccccc12` | -9.955 |
| 55 | `O=C(c1ccncc1F)N1CCc2ncnc(N3CCOCC3)c2CC1` | 29.81 |
| 56 | `OCc1cn(Cc2cccc(C(F)(F)F)c2)nn1` | -3.734 and -0.5802 |
| 57 | `O=C(NCC1CCN(c2ccncc2)CC1)C(O)c1ccccc1` (centres unmarked) | -6.421 |
| 58 | `Cc1cc(C(=O)N2CCc3nc(N4CCCC4)nc(C)c3CC2)c(C)o1` | -4.102 |
| 59 | `O=C(NCCc1nccs1)C(c1ccccc1)n1cnnn1` (centres unmarked) | -1.54 and 4.857 |
| 60 | `CCCS(=O)(=O)NC(C)c1cccc(-n2cccn2)c1` (centres unmarked) | 13.97 and -0.4768 |
| 61 | `CCn1cc(NS(=O)(=O)c2ccc(F)cc2)c(C(=O)NCC(C)C)n1` | 9.126 and 4.521 |
| 62 | `Cc1nc(C(=O)N2CCCC(n3cncn3)C2)cs1` (centres unmarked) | 28.61 |
| 63 | `[H][C@@]12C[C@@H](c3nnc(C)[nH]3)O[C@]1([H])CN(C(=O)c1cc(C)nn1CC)C2` | 1.763 |
| 64 | `COCCNc1cc(-c2cccc(C(=O)O)c2C)c2cc[nH]c2n1` | -34.78 |
| 65 | `CN(Cc1nc(C(C)(C)C)no1)C1CCS(=O)(=O)C1` (centres unmarked) | 4.887 and 0.1605 |
| 66 | `COCC(=O)N[C@H]1C[C@@H](Cc2cc(CN3CCOCC3)on2)C1(C)C` | -22.76 and -2.209 |
| 67 | `Cc1cccc(C(C)(C)NC(=O)CS(=O)(=O)CC(C)C)c1` | 17.15 |
| 68 | `CCNC(=O)CN1CCOC(c2ccccc2C(F)(F)F)C1` (centres unmarked) | -9.602 |
| 69 | `Cn1cccc1C(=O)N1CCC2(CCN(C(=O)c3cccnc3)C2)CC1.O=C(O)C(F)(F)F` | 14.43 |
| 70 | `CCn1ncc(CN2CCCC(C(=O)c3ccc(Cl)cc3)C2)c1C` (centres unmarked) | -24.75 and 16.1 |
| 71 | `Cc1nc(CN2CCCC(N(C)Cc3cscn3)C2)no1` (centres unmarked) | 58.23 |

The first 7 entries again:

Result for COc1ncc(C2(O)CCN(Cc3c(F)cccc3F)CC2)c(OC)n1.Cl was -27.91%.
Result for CNS(=O)(=O)c1ccc(CN2CCCN(Cc3ccncc3)CC2)cc1 was -4.697% and -5.142%.
Result for O=C(NCC1CC1)Nc1cnc2ccc(F)cc2c1O was -17.4%.
Result for CCCNC1(c2ccc(Cl)cc2)CCOCC1 was -13.39%.
Result for Cc1nc(Cc2ccc(F)cc2)cc(C2COCCN2)n1.Cl (centres unmarked) was 17.21%.
Result for CNC(=O)CN1CCOCC2(CCCN(CCc3ccccc3)C2)C1.O=C(O)C(F)(F)F.O=C(O)C(F)(F)F (centres unmarked) was 15.37%.
Result for CCc1ccc2nc(C)cc(C(=O)NC3CCNC3=O)c2c1 (centres unmarked) was 0.658% and 1.944%.

From ChEMBL document CHEMBL3988442, “University of Dundee, Small-Polar-MMV Screening Library” (2021).